Results are given in words; binding and its absence hold for the method and conditions named. Binding seen in cells or lysates may run through a third protein. Some entries that bind do so weakly or less than the wild type.
Experiments:
[1] = target: Gβ3 with Gγ9-GFP2 (pcDNA3.1-Beta3 and pcDNA3.1-GGamma9-GFP2) (UniProt P16520); test: FRET or BRET
P2RY8 V29W-LgBiT (human) = P2RY8 V29W-LgBiT (human) (UniProt Q86VZ1); test: split reporter
[2] = target: P2RY8-K180I-LgBiT (human) (UniProt Q86VZ1); test: split reporter
[3] = target: P2RY8-LgBiT (wild type) (human) (UniProt Q86VZ1); test: split reporter
[4] = target: P2RY8-W181M-LgBiT (human) (UniProt Q86VZ1); test: split reporter

Protein sequences, listed by entry. Tags and fused reporters are not part of them. Lines headed by an entry give the natural chain unless they say otherwise; changes in a name come on top.
UniProt P16520: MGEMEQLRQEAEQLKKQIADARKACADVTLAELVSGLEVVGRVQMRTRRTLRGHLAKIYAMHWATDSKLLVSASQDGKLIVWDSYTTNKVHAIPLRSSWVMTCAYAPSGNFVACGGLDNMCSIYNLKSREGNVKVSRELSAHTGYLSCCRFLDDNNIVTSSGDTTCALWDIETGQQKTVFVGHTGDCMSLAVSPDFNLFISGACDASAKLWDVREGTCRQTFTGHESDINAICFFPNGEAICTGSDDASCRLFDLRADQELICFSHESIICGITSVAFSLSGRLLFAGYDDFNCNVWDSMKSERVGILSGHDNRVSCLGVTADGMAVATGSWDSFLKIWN
UniProt Q14344: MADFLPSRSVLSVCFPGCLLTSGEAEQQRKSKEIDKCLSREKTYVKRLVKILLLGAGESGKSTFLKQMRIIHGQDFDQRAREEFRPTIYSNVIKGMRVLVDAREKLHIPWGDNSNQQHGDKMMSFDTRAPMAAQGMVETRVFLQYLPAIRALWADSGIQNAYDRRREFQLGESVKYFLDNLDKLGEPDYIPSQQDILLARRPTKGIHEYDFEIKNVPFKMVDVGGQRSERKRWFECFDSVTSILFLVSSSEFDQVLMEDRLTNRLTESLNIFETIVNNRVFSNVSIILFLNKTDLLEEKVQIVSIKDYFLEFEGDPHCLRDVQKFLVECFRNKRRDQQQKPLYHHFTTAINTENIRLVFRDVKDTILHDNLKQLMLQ

binding [1]	binding (P2RY8 V29W-LgBiT (human))	binding [2]	binding [3]	binding [4]	Substance
binds					Gα13-RLuc8 (pcDNA5/FRT/TO-GAlpha13-RLuc8) (from UniProt Q14344 1-377)
	binds	binds	binds	binds	β-Arr2-SmBiT (from UniProt P32121 1-409)

— paper PMC12648108
